Drawing on article doi:10.1101/2023.08.31.555694, this text covers binding for three molecules.

Assay [1] has as its target T1, Fny-CMV 1a protein, YFP N-proximal domain fusion for BiFC (cucumber mosaic virus, strain Fny) (UniProt P17769).
T1 sequence: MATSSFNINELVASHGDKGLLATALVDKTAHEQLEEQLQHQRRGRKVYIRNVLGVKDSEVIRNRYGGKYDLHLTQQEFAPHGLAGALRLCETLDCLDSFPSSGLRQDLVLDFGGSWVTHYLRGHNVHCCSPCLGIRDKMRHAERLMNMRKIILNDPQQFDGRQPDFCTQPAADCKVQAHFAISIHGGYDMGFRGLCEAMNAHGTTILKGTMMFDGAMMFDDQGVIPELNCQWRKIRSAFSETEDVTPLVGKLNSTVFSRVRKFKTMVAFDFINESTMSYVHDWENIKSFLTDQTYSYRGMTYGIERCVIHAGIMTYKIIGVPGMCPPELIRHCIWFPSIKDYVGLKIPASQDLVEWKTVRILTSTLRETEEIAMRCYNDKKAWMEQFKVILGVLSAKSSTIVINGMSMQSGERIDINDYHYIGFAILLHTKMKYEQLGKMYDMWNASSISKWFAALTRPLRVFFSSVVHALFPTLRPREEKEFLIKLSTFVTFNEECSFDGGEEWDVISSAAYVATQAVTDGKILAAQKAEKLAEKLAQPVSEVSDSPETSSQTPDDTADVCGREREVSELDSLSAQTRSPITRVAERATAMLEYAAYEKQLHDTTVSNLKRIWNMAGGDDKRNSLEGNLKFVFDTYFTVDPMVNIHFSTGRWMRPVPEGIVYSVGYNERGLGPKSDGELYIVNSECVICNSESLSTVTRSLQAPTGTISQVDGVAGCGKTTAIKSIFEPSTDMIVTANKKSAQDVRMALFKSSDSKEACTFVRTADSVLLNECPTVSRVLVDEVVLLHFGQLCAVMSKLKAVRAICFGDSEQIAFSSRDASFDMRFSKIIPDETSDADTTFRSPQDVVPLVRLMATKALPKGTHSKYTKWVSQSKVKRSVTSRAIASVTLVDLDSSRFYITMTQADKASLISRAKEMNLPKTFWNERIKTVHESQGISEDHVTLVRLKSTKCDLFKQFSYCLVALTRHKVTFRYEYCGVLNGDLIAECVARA
Description: split reporter.

In assay [2] the target is Fny-CMV 2b protein, C-terminal RFP fusion (cucumber mosaic virus, strain Fny). Nature of the assay: co-IP.
Assay [3] concerns the target Ho-CMV 2b protein (recapitulated from Fny-CMV 2b), C-terminal RFP fusion (cucumber mosaic virus, strain Ho). Nature of the assay: co-IP.

These are yes or no findings as the source states them, for the method shown. Binding seen in cells or lysates may run through a third protein. A result given as binding can be weak or reduced; the word gives no strength. Tags and fused reporters may be left off the sequences shown.

Take “Fny-CMV 2b protein, split-YFP fusion for BiFC (cucumber mosaic virus, strain Fny)”: in assay [1], the binding result was “binds”.

For the molecule “Ho-CMV 2b protein (recapitulated from Fny-CMV 2b), split-YFP fusion for BiFC (cucumber mosaic virus, strain Ho)”, the binding result in assay [1] is “binds”.

B1: GFP-tagged Fny-CMV 1a protein (protein, UniProt P17769 1-993)
chain: T1 sequence
In the case of B1, the binding entry in assay [2] and in assay [3] was “binds” in each case.
